No constants are given. Whether binding was seen depends on the method and setting. Some results given as binding are weak or reduced against the parent protein; the word gives no strength.

Protein sequences, listed by entry. Tags and fused reporters are not part of them. Residues count along the entry.
UniProt P21860, residues 20-643: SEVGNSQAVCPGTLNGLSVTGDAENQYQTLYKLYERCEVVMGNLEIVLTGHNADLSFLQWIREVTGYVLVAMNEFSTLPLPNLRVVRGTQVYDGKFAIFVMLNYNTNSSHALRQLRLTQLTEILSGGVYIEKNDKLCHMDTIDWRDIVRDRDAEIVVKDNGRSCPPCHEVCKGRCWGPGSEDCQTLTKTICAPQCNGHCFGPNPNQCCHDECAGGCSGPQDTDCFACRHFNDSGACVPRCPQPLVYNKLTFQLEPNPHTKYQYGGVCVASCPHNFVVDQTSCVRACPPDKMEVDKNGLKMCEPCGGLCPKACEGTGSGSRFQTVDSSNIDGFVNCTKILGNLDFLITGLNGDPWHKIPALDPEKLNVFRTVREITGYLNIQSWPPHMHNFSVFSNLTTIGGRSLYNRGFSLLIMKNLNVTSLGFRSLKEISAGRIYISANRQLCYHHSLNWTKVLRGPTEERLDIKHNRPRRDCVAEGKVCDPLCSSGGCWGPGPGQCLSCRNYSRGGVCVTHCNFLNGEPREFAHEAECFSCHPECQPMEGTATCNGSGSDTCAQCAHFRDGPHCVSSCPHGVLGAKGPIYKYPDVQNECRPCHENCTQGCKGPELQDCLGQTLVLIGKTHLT

The assay has as its target HER3 protein (free, coated on the ELISA plate) (UniProt P21860). The assay can be described thus: ELISA, HER3 protein coated on the plate. Background: In an ELISA, binding on a coated surface is turned into a signal by an enzyme label.

B1: fully human antibody molecule HER3-29 (antibody, human IgG1, kappa, V domains shown)
VH: QVQLVQSGGGLVQPGRSLRLSCAASGFTFDDYAMHWVRQAPGKGLEWVSGISWNSGSIGYADSVKGRFTISRDNAKNSLYLQMNSLRAEDTALYYCAKEGLPGLDYWGQGTLVTVSS
VL: DIQMTQSPSSLSASIGDRATITCRASQHVGTYLNWYQQKPGKTPKLLISGAANLQSGVPSRFSGSGSGTDFTLTISSLQPEDFATYYCQQSYNTPPFSFGQGTKVEIKR
For the molecule B1, the binding result is given as “binds”.

(Values after US20240026028A1.)
